Source: article PMC3128097

How the values were obtained:
Assay in all cases: two-hybrid; directed yeast two-hybrid, ProQuest Two-Hybrid System (vectors pDEST22 and pDEST32), full length coding regions; X-Gal assay on nitrocellulose membranes with yeast colonies
[1] = biological target: T1, Arabidopsis NF-YC3 (Arabidopsis thaliana) (UniProt Q9ZVL3)
T1 sequence: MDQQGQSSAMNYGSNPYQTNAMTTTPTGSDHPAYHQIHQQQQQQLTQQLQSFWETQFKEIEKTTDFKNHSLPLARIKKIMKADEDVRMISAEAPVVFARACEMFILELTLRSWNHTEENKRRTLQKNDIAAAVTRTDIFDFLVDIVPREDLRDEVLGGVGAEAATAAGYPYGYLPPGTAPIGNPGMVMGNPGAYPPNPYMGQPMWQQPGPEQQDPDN

[2] = biological target: T2, Arabidopsis NF-YC4 (Arabidopsis thaliana) (UniProt Q9FMV5)
T2 sequence: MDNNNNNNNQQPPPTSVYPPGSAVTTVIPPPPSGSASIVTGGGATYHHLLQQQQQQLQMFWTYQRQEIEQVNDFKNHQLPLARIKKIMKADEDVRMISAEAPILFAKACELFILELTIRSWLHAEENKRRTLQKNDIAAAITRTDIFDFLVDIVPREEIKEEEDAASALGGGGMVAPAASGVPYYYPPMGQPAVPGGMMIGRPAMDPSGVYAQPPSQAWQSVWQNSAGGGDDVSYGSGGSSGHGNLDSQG

[3] = biological target: T3, Arabidopsis NF-YC9 (Arabidopsis thaliana) (UniProt Q8L4B2)
T3 sequence: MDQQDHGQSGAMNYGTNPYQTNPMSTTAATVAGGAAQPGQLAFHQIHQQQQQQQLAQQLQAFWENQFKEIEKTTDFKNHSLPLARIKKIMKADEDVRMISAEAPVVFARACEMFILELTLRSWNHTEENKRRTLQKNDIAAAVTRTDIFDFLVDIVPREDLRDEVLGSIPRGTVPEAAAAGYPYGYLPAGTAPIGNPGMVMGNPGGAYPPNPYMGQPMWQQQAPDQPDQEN

binding [1] | binding [2] | binding [3] | Substance
binds | binds | binds | BdNF-YB3 (Brachypodium distachyon NF-YB3, Bradi1g43470)
binds | binds | binds | BdNF-YB6 (Brachypodium distachyon NF-YB6, Bradi1g60030)

These are yes or no findings as the source states them, for the method shown. A result given as binding can be weak or reduced; the word gives no strength.
